Laboratory results: PubChem BioAssay AID504786 (Drosophila RNAi Screening Center, 2011)
The deposit covers about 21,000 reagents; this is an unselected part of those that have a named target and a result. 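Primary screen; positive scores mean lost reporter signal, so the sign may be inverted from the usual convention.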 A plus sign joins genes that one reagent is predicted to hit. Further read-outs or replicates are left out here.

Purpose: 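Knock-downs reducing HIF reporter induction by the iron chelator DFO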 (primary screen)
Cell system: Drosophila S2 cells with a stable HIF luciferase reporter
Reagent: long dsRNA against Drosophila genes, about 0.2 µg dsRNA per well of a 384-well plate
Duration: three days of knock-down, then 20 h of DFO before reading
Challenge: desferrioxamine (DFO) at 100 µM, an iron chelator that mimics hypoxia, for 20 h
Detection: 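HIF reporter luminescence in cells given 100 µM DFO for 20 h, using the mouse ldh-a hypoxia-response element, scored as per-plate z-scores; higher means greater loss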
Reading the numbers: z-score: higher = stronger loss of HIF reporter signal

gene knocked down	amplicon	z-score, replicate 1
Dlc90F	DRSC16649	0
robl37BC	DRSC02472	-0.2
tgo	DRSC17077	4.8
CG6023	DRSC19970	-0.4
Vajk4	DRSC06589	0
Vajk4	DRSC07003	-0.4
BORCS7 + CG13430	DRSC06392	-0.1
BORCS7 + CG13430	DRSC06707	-0.3
CtIP	DRSC11785	-0.3
Bhmt	DRSC02079	-0.4
NKCC	DRSC12140	-0.4
NKCC	DRSC12311	0.1
Vps24	DRSC12332	-0.3
Jon66Cii	DRSC10778	-0.4
CG31817	DRSC01537	-0.6
CG31817	DRSC01538	-0.2
CG34006 (retired record)	DRSC13817	0.2
brat	DRSC03497	-0.2
Apt1	DRSC10348	-0.3
CG8738	DRSC07256	-0.2
SNCF	DRSC10115	-0.4
mRpS33	DRSC14239	1.1

A run of entries from the list above:
gene knocked down	amplicon	z-score, replicate 1
brat	DRSC03497	-0.2
Apt1	DRSC10348	-0.3

Further reagents:
gene knocked down	amplicon	z-score, replicate 1
CG7763	DRSC07043	-0.3
CG18581	DRSC10324	0.1
odd	DRSC00832	0.7
Ptp10D	DRSC20272	-0.3
HBS1	DRSC08544	-0.3
Pvr	DRSC03080	4.5
CG13841	DRSC14691	1.5
CG6171	DRSC15982	0
pinta	DRSC14698	-0.3
to	DRSC17086	-0.1
Agpat2	DRSC03532	-0.1
CG33271	DRSC10583	-0.4
CG13836 (retired record)	DRSC14686	-0.1
ppk	DRSC03595	-0.3
Elp3	DRSC00448	0
Pgam5	DRSC18551	-0.3
ArfGAP3	DRSC11794	-0.4
Ns3	DRSC18607	-0.2
CtsK2	DRSC06897	-0.3
CAH3	DRSC17776	-0.2
Afg3l2	DRSC10657	-0.2
CG7606	DRSC13246	-0.3
CG7606	DRSC16268	-0.2
CG9312	DRSC16471	-0.3
CG13919	DRSC08388	-0.2
raskol	DRSC19202	-0.3
raskol	DRSC19731	-0.4
raskol	DRSC19964	-0.5
raskol	DRSC19967	2.8
D1	DRSC16638	-0.3
CG3650	DRSC04401	-0.3
mys	DRSC18799	-0.3
Ugt302K1	DRSC16086	-0.2
CG13601	DRSC14604	-0.1
